Results taken from the supplement of paper PMC12823440, “Inhibitors supercharge kinase turnover through native proteolytic circuits” (Nature, 2025).
Some of the results follow. Hit calls seldom repeat between salt and free forms of one compound.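 Kinases, fused to nanoluciferase, were expressed in K562 cells; luminescence was measured every 4 h from 2 to 18 h as percent of control (DMSO = 100%, positive control = 0%). A time point is decreased if signal falls significantly (2 sigma). Hits were called by the authors by a rule that is not shown; the count of time points alone does not decide it.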

Sequences of proteins named here, by UniProt entry; tags and fusion partners are left off. A change or cut given only in a name is not applied to a line headed by its entry.
UniProt P10398: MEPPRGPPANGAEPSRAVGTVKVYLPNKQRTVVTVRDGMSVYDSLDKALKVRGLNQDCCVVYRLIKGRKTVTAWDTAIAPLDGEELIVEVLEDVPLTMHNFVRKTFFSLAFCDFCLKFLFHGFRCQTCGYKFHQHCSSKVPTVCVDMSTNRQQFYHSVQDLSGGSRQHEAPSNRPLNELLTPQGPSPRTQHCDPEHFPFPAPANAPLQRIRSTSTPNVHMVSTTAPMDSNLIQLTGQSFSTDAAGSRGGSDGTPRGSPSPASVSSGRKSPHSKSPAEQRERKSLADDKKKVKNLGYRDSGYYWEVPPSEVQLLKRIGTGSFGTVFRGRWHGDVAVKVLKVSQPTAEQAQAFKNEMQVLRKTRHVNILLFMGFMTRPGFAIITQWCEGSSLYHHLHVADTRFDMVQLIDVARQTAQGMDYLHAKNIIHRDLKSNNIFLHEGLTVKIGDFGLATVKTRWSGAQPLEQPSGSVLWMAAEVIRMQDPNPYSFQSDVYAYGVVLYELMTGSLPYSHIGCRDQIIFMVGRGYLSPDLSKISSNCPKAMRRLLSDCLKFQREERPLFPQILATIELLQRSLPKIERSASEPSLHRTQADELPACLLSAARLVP
UniProt O14965: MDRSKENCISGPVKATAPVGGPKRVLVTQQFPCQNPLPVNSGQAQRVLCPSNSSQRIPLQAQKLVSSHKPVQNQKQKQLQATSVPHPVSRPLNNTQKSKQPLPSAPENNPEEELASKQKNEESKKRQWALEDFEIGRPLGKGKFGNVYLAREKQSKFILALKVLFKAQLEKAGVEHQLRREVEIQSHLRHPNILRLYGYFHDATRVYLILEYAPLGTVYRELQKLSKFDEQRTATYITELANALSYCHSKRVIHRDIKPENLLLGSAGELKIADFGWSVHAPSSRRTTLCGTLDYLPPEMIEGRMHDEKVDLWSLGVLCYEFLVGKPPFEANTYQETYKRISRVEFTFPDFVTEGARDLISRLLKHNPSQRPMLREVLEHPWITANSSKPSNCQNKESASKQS
UniProt P51451: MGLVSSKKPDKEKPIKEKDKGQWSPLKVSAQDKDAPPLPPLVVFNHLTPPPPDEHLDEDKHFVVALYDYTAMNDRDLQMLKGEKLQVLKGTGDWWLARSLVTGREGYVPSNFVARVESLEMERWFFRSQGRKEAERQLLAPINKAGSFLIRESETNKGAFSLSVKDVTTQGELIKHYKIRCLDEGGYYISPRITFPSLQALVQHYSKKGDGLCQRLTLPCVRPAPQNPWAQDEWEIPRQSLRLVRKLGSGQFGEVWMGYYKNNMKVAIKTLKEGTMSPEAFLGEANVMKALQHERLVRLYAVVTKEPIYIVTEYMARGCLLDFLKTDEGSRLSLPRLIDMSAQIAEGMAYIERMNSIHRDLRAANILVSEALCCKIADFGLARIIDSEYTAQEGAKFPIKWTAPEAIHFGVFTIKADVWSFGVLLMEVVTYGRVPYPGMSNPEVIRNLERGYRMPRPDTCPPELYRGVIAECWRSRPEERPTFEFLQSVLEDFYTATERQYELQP
UniProt Q06187: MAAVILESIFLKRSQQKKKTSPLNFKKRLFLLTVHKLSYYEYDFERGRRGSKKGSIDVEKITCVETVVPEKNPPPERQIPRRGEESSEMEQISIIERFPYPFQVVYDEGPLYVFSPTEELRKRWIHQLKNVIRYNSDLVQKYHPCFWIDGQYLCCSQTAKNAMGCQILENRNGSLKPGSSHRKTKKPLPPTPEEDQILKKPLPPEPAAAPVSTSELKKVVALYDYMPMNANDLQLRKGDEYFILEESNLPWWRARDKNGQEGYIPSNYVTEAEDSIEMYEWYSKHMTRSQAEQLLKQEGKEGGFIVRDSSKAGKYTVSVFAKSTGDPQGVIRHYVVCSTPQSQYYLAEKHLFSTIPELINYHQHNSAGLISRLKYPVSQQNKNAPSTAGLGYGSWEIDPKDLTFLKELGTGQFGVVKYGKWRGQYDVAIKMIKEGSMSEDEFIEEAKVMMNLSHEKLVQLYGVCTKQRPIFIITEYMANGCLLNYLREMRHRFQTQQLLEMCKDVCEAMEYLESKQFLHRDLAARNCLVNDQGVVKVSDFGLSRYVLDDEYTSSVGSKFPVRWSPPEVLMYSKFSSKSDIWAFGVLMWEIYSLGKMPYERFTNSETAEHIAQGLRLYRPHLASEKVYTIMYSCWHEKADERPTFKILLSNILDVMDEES
UniProt Q9UQM7, whole entry: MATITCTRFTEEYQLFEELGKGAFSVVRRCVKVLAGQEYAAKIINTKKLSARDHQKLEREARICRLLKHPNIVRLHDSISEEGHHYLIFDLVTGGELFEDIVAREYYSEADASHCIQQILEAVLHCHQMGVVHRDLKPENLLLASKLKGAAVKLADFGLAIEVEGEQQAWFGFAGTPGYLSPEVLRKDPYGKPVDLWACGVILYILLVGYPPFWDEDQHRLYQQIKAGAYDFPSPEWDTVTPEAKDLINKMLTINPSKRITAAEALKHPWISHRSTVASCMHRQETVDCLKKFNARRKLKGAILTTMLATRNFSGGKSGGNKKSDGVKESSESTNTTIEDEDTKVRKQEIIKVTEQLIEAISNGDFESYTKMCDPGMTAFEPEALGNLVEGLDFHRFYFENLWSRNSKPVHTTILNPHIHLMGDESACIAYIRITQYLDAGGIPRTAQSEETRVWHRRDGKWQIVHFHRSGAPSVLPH
UniProt Q13555: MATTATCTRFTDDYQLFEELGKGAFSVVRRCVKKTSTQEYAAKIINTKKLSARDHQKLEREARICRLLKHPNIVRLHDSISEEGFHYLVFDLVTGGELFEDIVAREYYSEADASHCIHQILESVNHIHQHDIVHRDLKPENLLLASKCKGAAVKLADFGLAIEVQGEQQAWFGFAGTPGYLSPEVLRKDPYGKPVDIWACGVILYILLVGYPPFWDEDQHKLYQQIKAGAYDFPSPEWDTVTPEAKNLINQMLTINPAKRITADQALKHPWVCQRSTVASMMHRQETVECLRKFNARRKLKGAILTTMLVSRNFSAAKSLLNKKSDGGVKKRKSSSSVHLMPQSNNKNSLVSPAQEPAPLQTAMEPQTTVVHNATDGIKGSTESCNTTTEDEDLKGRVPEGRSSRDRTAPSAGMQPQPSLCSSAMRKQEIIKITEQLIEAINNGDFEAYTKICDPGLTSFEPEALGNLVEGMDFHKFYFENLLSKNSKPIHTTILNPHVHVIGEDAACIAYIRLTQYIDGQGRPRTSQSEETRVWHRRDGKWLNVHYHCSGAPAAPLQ
UniProt Q15131: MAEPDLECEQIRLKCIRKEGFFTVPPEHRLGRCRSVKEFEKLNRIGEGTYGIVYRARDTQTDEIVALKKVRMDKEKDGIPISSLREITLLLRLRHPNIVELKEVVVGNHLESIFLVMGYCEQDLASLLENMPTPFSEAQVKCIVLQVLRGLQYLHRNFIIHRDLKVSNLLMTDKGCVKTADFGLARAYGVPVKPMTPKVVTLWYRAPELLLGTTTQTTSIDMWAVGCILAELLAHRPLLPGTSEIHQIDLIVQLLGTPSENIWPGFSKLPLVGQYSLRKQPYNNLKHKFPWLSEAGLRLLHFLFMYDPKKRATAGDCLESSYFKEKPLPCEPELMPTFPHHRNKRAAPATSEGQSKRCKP
UniProt Q00526: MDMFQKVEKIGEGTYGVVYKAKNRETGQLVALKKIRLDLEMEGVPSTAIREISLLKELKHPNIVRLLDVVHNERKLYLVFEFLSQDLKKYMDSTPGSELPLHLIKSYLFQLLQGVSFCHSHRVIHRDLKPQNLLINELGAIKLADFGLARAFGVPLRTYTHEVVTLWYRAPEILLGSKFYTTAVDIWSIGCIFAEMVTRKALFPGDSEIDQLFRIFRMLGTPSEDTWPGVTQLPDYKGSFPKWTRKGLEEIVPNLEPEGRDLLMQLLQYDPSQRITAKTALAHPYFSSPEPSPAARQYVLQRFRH
UniProt Q00535, whole entry, looked up: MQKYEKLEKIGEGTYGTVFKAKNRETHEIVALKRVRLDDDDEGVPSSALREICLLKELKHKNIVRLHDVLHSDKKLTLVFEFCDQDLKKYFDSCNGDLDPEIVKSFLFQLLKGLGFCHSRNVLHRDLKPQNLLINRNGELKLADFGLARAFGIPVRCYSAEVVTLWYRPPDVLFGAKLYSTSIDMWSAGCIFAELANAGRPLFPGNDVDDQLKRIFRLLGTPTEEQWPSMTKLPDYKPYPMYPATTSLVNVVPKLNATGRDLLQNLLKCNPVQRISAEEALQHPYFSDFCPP
UniProt Q00534, whole entry: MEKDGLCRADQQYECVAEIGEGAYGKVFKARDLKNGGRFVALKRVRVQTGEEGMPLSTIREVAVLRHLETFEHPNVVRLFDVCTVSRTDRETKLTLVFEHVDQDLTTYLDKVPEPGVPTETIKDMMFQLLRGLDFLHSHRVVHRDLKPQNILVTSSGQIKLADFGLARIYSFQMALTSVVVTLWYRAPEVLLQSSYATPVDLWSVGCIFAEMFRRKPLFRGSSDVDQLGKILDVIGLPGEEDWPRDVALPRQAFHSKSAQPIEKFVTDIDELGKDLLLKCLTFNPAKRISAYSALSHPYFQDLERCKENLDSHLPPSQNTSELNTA
UniProt O96017, whole entry: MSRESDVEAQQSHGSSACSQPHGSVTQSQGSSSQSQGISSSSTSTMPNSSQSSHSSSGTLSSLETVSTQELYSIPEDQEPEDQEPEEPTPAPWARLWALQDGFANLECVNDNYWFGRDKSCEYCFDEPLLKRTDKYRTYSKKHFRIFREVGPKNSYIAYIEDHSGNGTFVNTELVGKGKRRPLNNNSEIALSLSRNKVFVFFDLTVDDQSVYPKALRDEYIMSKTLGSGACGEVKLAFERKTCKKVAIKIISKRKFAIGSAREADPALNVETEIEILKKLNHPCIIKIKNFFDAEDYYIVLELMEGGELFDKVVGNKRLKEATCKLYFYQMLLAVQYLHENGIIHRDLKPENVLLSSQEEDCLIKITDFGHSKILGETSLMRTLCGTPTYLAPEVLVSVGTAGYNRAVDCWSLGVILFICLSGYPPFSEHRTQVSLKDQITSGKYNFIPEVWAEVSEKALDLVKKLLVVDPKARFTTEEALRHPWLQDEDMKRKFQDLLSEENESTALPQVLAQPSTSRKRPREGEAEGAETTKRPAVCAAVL
UniProt P07333, whole entry: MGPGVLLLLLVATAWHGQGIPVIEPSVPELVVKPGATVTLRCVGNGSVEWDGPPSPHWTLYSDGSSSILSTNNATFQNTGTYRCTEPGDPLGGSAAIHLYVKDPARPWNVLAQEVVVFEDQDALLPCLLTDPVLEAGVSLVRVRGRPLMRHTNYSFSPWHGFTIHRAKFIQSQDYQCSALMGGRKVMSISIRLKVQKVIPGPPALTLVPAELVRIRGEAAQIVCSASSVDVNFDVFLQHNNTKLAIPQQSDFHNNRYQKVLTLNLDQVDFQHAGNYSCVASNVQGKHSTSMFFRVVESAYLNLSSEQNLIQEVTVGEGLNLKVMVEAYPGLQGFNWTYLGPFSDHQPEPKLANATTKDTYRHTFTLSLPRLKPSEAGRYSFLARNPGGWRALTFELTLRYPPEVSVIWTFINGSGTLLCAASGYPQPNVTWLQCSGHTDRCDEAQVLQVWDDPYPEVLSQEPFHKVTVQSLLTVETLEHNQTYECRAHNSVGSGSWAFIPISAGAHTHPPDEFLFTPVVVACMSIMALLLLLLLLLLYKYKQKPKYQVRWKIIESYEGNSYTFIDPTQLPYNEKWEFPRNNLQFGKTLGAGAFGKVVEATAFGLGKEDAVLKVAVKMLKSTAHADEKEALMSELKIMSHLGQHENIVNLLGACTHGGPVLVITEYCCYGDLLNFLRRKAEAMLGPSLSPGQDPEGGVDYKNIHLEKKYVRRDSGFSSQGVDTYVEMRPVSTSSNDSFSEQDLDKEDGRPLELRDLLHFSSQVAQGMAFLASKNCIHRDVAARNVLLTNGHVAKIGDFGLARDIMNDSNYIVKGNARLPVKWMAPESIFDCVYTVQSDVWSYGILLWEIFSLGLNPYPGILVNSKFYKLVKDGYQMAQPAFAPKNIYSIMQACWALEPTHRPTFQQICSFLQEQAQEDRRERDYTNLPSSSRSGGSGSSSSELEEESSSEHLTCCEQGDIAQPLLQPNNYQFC
UniProt P41240: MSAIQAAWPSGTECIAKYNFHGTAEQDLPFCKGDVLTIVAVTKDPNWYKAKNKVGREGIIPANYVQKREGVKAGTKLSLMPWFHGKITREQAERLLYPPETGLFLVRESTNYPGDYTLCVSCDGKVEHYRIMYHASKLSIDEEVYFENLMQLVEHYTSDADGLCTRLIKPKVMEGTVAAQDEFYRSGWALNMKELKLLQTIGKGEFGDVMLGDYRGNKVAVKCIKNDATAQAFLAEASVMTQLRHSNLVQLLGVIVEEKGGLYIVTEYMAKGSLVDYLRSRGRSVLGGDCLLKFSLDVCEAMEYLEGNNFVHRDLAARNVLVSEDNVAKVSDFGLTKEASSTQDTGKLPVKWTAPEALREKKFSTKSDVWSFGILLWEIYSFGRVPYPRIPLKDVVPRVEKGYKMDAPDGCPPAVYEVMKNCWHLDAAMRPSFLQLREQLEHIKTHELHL

Tests used:
Experiment in all cases: number of time points (of 5) at which kinase-Nluc abundance scored as decreased, DMSO-normalised (count); higher = more persistent destabilization
Conditions in all cases: K562; 2-18 h
ALK = ALK (UniProt Q9UM73)
ARAF = ARAF (UniProt P10398)
AURKA = AURKA (UniProt O14965)
AURKB = AURKB (UniProt Q96GD4)
AURKC = AURKC (UniProt Q9UQB9)
BLK = BLK (UniProt P51451)
BMX = BMX (UniProt P51813)
BRAF = BRAF (UniProt P15056)
BRAF_V600E = tested on: BRAF_V600E
BTK = BTK (UniProt Q06187)
CAMK2A = CAMK2A (UniProt Q9UQM7)
CAMK2G = CAMK2G (UniProt Q13555)
CDK10 = CDK10 (UniProt Q15131)
CDK2 = CDK2 (UniProt P24941)
CDK3 = CDK3 (UniProt Q00526)
CDK5 = CDK5 (UniProt Q00535)
CDK6 = CDK6 (UniProt Q00534)
CHEK2 = CHEK2 (UniProt O96017)
CSF1R = CSF1R (UniProt P07333)
CSK = CSK (UniProt P41240)

Row | SMILES | number of time points (ALK) | number of time points (ARAF) | number of time points (AURKA) | number of time points (AURKB) | number of time points (AURKC) | number of time points (BLK) | number of time points (BMX) | number of time points (BRAF) | number of time points (BRAF_V600E) | number of time points (BTK) | number of time points (CAMK2A) | number of time points (CAMK2G) | number of time points (CDK10) | number of time points (CDK2) | number of time points (CDK3) | number of time points (CDK5) | number of time points (CDK6) | number of time points (CHEK2) | number of time points (CSF1R) | number of time points (CSK)
1 | CCN1CCC(n2cc(CNc3cc(Cl)c4ncc(C#N)c(Nc5ccc(F)c(Cl)c5)c4c3)nn2)CC1 [Cot inhibitor-2] (2.5 µM) | 0 | 0 | 0 | 0 | 0 | 0 | 0 | 0 | 0 | 0 | 0 | 0 | 0 | 0 | 0 | 0 | 0 | 0 | 0 | 0
2 | Cc1cc2ncc(-c3ccc(O)c(O)c3)nc2cc1C [Tyrphostin AG1433] (10 µM) | 0 | 0 | 0 | 0 | 0 | 0 | 0 | 0 | 0 | 0 | 0 | 0 | 0 | 0 | 0 | 0 | 0 | 0 | 0 | 0
3 | CC#CC(=O)Nc1ccc2ncnc(Nc3cccc(Br)c3)c2c1 (10 µM) | 0 | 0 | 0 | 0 | 0 | 0 | 0 | 0 | 0 | 0 | 0 | 0 | 0 | 0 | 0 | 1 | 0 | 0 | 1 | 0
4 | COc1ccc(Cl)c(Nc2nc3ccccc3nc2NS(=O)(=O)c2cccc(NC(=O)C(C)(C)N)c2)c1 [Pilaralisib] (10 µM) | 0 | 0 | 0 | 0 | 0 | 0 | 0 | 0 | 0 | 0 | 0 | 0 | 0 | 0 | 0 | 0 | 0 | 0 | 0 | 0
5 | O=c1cc(CN2CCOCC2)occ1OCCCCCSc1ccnc2cc(C(F)(F)F)ccc12 (10 µM) | 0 | 0 | 0 | 0 | 0 | 0 | 0 | 0 | 0 | 0 | 0 | 0 | 0 | 0 | 0 | 0 | 0 | 0 | 0 | 0
6 | O=C(O)CCC(=O)Nc1ccc(Br)cn1 [Bikinin] (10 µM) | 0 | 0 | 0 | 0 | 0 | 0 | 0 | 0 | 0 | 0 | 0 | 0 | 0 | 0 | 0 | 0 | 0 | 0 | 0 | 0
7 | CCC(C)N1c2ccccc2C(=O)N(C)c2cnc(Nc3ccc(C(=O)N4CCC(N5CCN(C)CC5)CC4)cc3OC)nc21 (stereo not given) (2.5 µM) | 0 | 0 | 0 | 0 | 0 | 0 | 0 | 0 | 0 | 0 | 0 | 0 | 0 | 0 | 0 | 0 | 0 | 0 | 0 | 0
8 | COc1cc(OC2CCN(C)CC2)ccc1Nc1ncc2c(n1)n(C1CCCC1)c(=O)n2C (10 µM) | 0 | 0 | 0 | 0 | 0 | 0 | 0 | 0 | 0 | 0 | 0 | 0 | 0 | 0 | 0 | 0 | 0 | 0 | 0 | 0
9 | COc1cccc(OC)c1C(=O)OCc1cc(O)ccc1O[C@@H]1O[C@H](CO)[C@@H](O)[C@H](O)[C@H]1O [Curculigoside] (10 µM) | 0 | 0 | 0 | 0 | 0 | 0 | 0 | 0 | 0 | 0 | 0 | 0 | 0 | 0 | 0 | 0 | 0 | 0 | 0 | 0
10 | O=Nc1c(-c2c(O)[nH]c3ccc(F)cc23)[nH]c2ccccc12 [5'-Fluoroindirubinoxime] (10 µM) | 4 | 0 | 4 | 2 | 0 | 0 | 0 | 0 | 0 | 0 | 0 | 0 | 0 | 0 | 0 | 0 | 0 | 0 | 0 | 0
11 | O=c1[nH]c(=O)n([C@@H]2O[C@H](CO)[C@@H](O)[C@@H]2O)cc1/C=C/Br [Sorivudine] (10 µM) | 0 | 0 | 0 | 0 | 0 | 0 | 0 | 0 | 0 | 0 | 0 | 0 | 0 | 0 | 0 | 0 | 0 | 0 | 0 | 0
12 | CC(C)(C)c1nc(-c2cccc(NS(=O)(=O)c3c(F)cccc3F)c2F)c(-c2ccnc(N)n2)s1 [Dabrafenib] (2.5 µM) | 0 | 0 | 0 | 0 | 0 | 0 | 0 | 0 | 0 | 0 | 0 | 0 | 0 | 0 | 0 | 0 | 0 | 0 | 0 | 0
13 | CCS(=O)(=O)c1ncc(Cl)c(C(=O)N(Cc2ccc(Cl)cc2)Cc2ccco2)n1 (2.5 µM) | 0 | 0 | 3 | 0 | 0 | 3 | 0 | 0 | 0 | 0 | 0 | 0 | 0 | 0 | 0 | 0 | 0 | 0 | 0 | 0
14 | CN1CCC(c2cc(-c3ccncc3)c(-c3ccc(F)cc3)[nH]2)CC1 (10 µM) | 0 | 0 | 0 | 0 | 0 | 0 | 0 | 0 | 0 | 0 | 0 | 0 | 0 | 0 | 0 | 0 | 0 | 0 | 0 | 0
15 | COc1ccc2c(OCc3nnc4ccc(-c5ccccc5)nn34)ccnc2c1 (2 µM) | 0 | 0 | 0 | 0 | 0 | 0 | 0 | 0 | 0 | 0 | 0 | 0 | 0 | 0 | 0 | 0 | 0 | 0 | 0 | 0
16 | COc1cc(Nc2ncc(F)c(Nc3ccc4c(n3)N(COP(=O)(O)O)C(=O)C(C)(C)O4)n2)cc(OC)c1OC [Fostamatinib Disodium] (10 µM) | 0 | 0 | 0 |  | 0 | 0 | 0 | 0 | 0 | 0 | 0 | 0 | 0 | 0 | 0 | 0 | 0 | 0 | 0 | 0
17 | Cc1[nH]c(/C=C2\C(=O)Nc3ccccc32)c(C)c1CCC(=O)O [Orantinib] (10 µM) | 0 | 0 | 0 | 0 | 0 |  | 0 | 0 | 0 | 0 | 0 | 0 | 0 | 0 | 0 | 0 | 0 | 0 | 0 | 0
18 | CC(C)(O)CNc1ncc(-c2ccnc(Nc3ccnc(Cl)c3)n2)c(CC2CC2)n1 (2.5 µM) | 0 | 0 | 0 | 0 | 0 | 0 | 0 | 0 | 0 | 0 | 0 | 0 | 0 | 0 | 0 | 0 | 0 | 0 | 0 | 0
19 | COc1ccccc1-c1cc(Nc2cccc(CS(N)(=O)=O)c2)ncn1 (10 µM) | 2 | 0 | 3 | 0 | 0 | 0 | 2 | 0 | 2 | 0 | 0 | 0 | 0 | 0 | 0 | 0 | 0 | 1 | 0 | 0
20 | CCN1CCN(Cc2ccc(Nc3ncc(F)c(-c4cc(F)c5nc(C)n(C(C)C)c5c4)n3)nc2)CC1 [Abemaciclib] (2 µM) | 0 | 0 | 3 | 0 | 0 | 0 | 0 | 0 | 0 | 0 | 0 | 0 | 0 |  | 0 | 0 | 0 | 0 | 0 | 0
21 | COc1cc(Nc2ncc(F)c(Nc3ccc4c(n3)NC(=O)C(C)(C)O4)n2)cc(OC)c1OC [R406 (free base)] (10 µM) | 0 | 0 |  | 0 | 0 | 0 |  | 0 | 0 | 0 | 0 | 0 | 0 | 0 | 0 | 0 | 0 | 0 | 0 | 0

An excerpt of these results, as tab-separated lines:
Row	SMILES	number of time points (ALK)	number of time points (ARAF)	number of time points (AURKA)	number of time points (AURKB)	number of time points (AURKC)	number of time points (BLK)	number of time points (BMX)	number of time points (BRAF)	number of time points (BRAF_V600E)	number of time points (BTK)	number of time points (CAMK2A)	number of time points (CAMK2G)	number of time points (CDK10)	number of time points (CDK2)	number of time points (CDK3)	number of time points (CDK5)	number of time points (CDK6)	number of time points (CHEK2)	number of time points (CSF1R)	number of time points (CSK)
6	O=C(O)CCC(=O)Nc1ccc(Br)cn1 [Bikinin] (10 µM)	0	0	0	0	0	0	0	0	0	0	0	0	0	0	0	0	0	0	0	0
14	CN1CCC(c2cc(-c3ccncc3)c(-c3ccc(F)cc3)[nH]2)CC1 (10 µM)	0	0	0	0	0	0	0	0	0	0	0	0	0	0	0	0	0	0	0	0
